Results as given in article PMC10247384.
No constants are given. Whether binding was seen depends on the method and setting. Binding seen in cells or lysates may run through a third protein. A yes stands for co-enrichment or nearness to the bait. Other partners may have been found.

Chains of the proteins cited; added tags and fusions are not shown.
UniProt Q9H6L5: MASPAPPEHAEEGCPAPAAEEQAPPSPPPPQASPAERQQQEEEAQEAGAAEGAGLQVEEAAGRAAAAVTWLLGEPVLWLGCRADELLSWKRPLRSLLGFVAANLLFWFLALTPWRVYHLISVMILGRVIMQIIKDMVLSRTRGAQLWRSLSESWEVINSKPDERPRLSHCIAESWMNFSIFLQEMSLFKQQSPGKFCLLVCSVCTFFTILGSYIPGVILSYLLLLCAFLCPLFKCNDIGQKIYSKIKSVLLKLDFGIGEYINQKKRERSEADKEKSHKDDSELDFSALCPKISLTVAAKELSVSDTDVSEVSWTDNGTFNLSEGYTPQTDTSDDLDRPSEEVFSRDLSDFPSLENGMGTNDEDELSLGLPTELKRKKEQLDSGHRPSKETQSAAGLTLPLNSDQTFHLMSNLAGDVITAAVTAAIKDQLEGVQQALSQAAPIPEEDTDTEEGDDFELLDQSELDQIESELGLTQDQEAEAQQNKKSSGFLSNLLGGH

Legend:
[1] = target: FAM134B N-terminally tagged with the V1 or V2 fragment of the Venus protein (UniProt Q9H6L5); assay: affinity purification with mass spectrometry; BiCAP: HEK293T cells transiently transfected with V1- and V2-tagged constructs; lysis in 1% Triton X-100 IP buffer, diluted to 0.3%; GFP-Trap beads overnight at 4 °C; label-free LC–MS
HA–FAM134B = HA–FAM134B (UniProt Q9H6L5); assay: affinity purification with mass spectrometry; HA–FAM134B induced with doxycycline in U2OS cells; lysis in 1% Triton X-100 IP buffer, diluted to 0.3%; HA-agarose beads overnight at 4 °C; LC–MS

Substance | binding [1] | binding (HA–FAM134B)
ARL6IP1 N-terminally tagged with the V1 or V2 fragment of the Venus protein (from UniProt Q15041 1-203) | binds | 
FAM134B N-terminally tagged with the V1 or V2 fragment of the Venus protein (from UniProt Q9H6L5 1-497) | binds | 
endogenous ARL6IP1 (human cells) (from UniProt Q15041-1 1-203) |  | binds
